According to PMC12307804:
Results are given in words; binding and its absence hold for the method and conditions named. In cells and extracts the contact can be indirect. Some results given as binding are weak or reduced against the parent protein; the word gives no strength.

Chains of the proteins cited; added tags and fusions are not shown.
UniProt Q9C5T4: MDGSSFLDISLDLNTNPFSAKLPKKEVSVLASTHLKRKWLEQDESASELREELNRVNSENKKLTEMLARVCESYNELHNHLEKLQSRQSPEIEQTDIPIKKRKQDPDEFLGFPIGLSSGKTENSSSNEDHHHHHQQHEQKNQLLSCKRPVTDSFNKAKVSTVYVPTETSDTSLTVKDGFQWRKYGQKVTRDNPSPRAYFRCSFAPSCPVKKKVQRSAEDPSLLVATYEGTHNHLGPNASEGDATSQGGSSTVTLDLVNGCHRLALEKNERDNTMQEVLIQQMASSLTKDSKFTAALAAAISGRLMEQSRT

Assays:
[1] = target: WRKY18 (Arabidopsis thaliana) (UniProt Q9C5T4); assay: split reporter; ratiometric BiFC (pBiFCt-2in1-NN) in transiently transformed Arabidopsis protoplasts, overnight incubation in the dark, read by flow cytometry (CytoFLEX)
[2] = target: WRKY18 (Arabidopsis thaliana) (UniProt Q9C5T4); assay: split reporter; BiFC 2in1 (pBiFCt2in1-NN, both partners in one vector, 35S promoter, RFP as internal control) in transiently transformed N. benthamiana leaves; confocal microscopy two days after infiltration; YFP/RFP ratio for each nucleus

In the case of WRKY18 (from UniProt Q9C5T4 1-310), the binding [1] is reported as “binds” and the binding [2] is reported as “binds”.
